# Measurements as given in patent publication US10669283B2, “Compound and pharmacologically acceptable salt thereof” (MEIJI SEIKA PHARMA CO., LTD., priority 2016, dated 2020).
# At least one structure is not confirmed: it was looked up by name or label, or the drawing left a doubt.
# Tested on: PDE4
# Experiment: PDE4 inhibition, scintillation proximity assay (SPA);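 note: A below 100 nM B 100 to below 1000 nM C 1000 nM or more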
# Assay type: biochemical
# Conditions: evaluated as classes A, B, C, read-out: PDE4 Inhibitory Activity (concentration for the inhibition rate of 50%)
# Procedure: The PDE4 inhibitory activity was measured using scintillation proximity assay (SPA) as follows. A sample compound dissolved in dimethyl sulfoxide was diluted 1:10 in reaction buffer solution which contained 50 mM of Tris-HCl with pH 7.4, 8.3 mM of MgCl2, 1.7 mM of EGTA, and 3 mg/mL of bovine serum albumin (BSA). Then, 10 μL of the diluted solution was added in a 96-well assay plate. Moreover, 50 μL of PDE4 diluted 1:375 in the reaction buffer solution was added, and then 40 μL of [2,8-^3H]-adenosine-3′,5′-cyclic phosphate triethylammonium salt diluted 1:1000 in the reaction buffer solution was added. The mixture was allowed to stand at room temperature for 120 minutes. Thereafter, […] of RNA binding YSi-SPA beads suspension containing ZnSO4 was added and the mixture was allowed to stand at room temperature for 15 minutes, followed by adsorption of the enzyme reaction product to the beads. After that, the radioactivity was measured using a liquid scintillation counter for a 96-well plate. The mixture without the enzyme preparation added but only the reaction buffer solution added is a blank, and the mixture with the enzyme preparation added and only dimethyl sulfoxide added instead of the sample solution is a control.
row,SMILES,IC50 [nM]
1,"CON=C(C)c1cc(-c2nccs2)c2oc(N3CC4CC(C3)N4)nc2c1OC(F)(F)F (mixture of isomers) [Example 219, (E)-1-(2-(3,6-diazabicyclo[3.1.1]heptan-3-yl)-7-(thiazol-2-yl)-4-(trifluoromethoxy)benzo[d]oxazol-5-yl)ethan-1-one O-methyloxime and (Z)-1-(2-(3,6-diazabicyclo[3.1.1]heptan-3-yl)-7-(thiazol-2-yl)-4-(trifluoromethoxy)benzo[d]oxazol-5-yl)ethan-1-one O-methyloxime]",< 100
2,"CC(C)(O)c1ccc(-c2nccs2)c2oc(N3CC4CC(C3)N4)nc12 [Example 246, 2-(2-(3,6-Diazabicyclo[3.1.1]heptan-3-yl)-7-(thiazol-2-yl)benzo[d]oxazol-4-yl)propan-2-ol]",< 100
